Data on 1 compound can be found in patent US9075014B2, “pH-responsive fluorescent false neurotransmitters and their use” (THE TRUSTEES OF COLUMBIA UNIVERSITY IN THE CITY OF NEW YORK, priority 2011, dated 2015).

Each structure is given as a SMILES string.

For this data set, the system named is LDCVs in PC-12 cells. The experiment in a line: Two-photon ratiometric pH measurement of secretory vesicles (LDCVs) in PC-12 cells. The following applies: extrapolated from ratio with in situ calibration curve, no drug.

For `NCCc1cc2cc(Cl)c(O)cc2oc1=O` [Mini202], the “mean pH of LDCVs in PC-12 cells” value is 5.88±0.08.
